The whole screen tested about 330,000 compounds, of which about 7,700 (2.3%) were called active. Inconclusive results, whose numbers are uncertain, are shown with a selection of clear calls. Calls come from the whole dose curve; as a rule, active = well fitted inhibition curve with a large enough effect; inconclusive = small, poorly fitted or top-dose-only effect, or effect the other way; inactive = flat fitted curve, though single readings scatter. Potencies of inconclusive entries are doubtful fits and often do not repeat.
Assay: qHTS screen for small molecules that inhibit ELG1-dependent DNA repair in human embryonic kidney (HEK293T) cells expressing luciferase-tagged ELG1; note: nearly all actives have a fitted effect of over 55% in size
Conditions: HEK293T ELG1-luciferase reporter, luminescence, 16 h, DNA damage induced by 5-fluorouridine; activity change, negative = inhibition: at 46.1 µM (top of the series)
Procedure, shortened: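 Step one: seed 2,000 cells per well. Step two: pin-transfer compound or DMSO alongside 5-fluorouridine. Step three: incubate 16 hr, 37 °C, 5% CO2. Step four: add ONE-Glo, wait 30 min, read luminescence.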
% is set by controls: 0 for no effect and ±100 for the full control effect; potency is the fitted concentration of half-maximal effect.

Structure (SMILES) | activity change, negative = inhibition | Potency
CC(Sc1ccc(S(=O)(=O)N2CCN(C)CC2)cn1)C(=O)NC1CCCCC1 (stereo not drawn) | inconclusive: 2.88% [activator] | –
COc1ccc(CN(CC(=O)NC2CCCC2)C(=O)CN2C(=O)COc3ccccc32)cc1 | – | inconclusive: 23.1 µM [inhibitor, partial curve]
c1ccc(CN2CCC(Nc3nc(-c4ccccc4)nc4ccccc34)CC2)cc1 | – | inconclusive: 29.1 µM [inhibitor, single point]
CCN(CC(=O)Nc1ccc2c(c1)OCCO2)CC(=O)Nc1ccc(C)c([N+](=O)[O-])c1 | – | inconclusive: 29.1 µM [inhibitor, single point]
Cc1cc(C)nc(N(C#N)CC(=O)c2ccccc2)n1 | – | inactive
COc1ccc(CNC(=O)COC(=O)c2ccc(C)c(S(=O)(=O)N3CCOCC3)c2)cc1 | – | inactive
CCC(C)Oc1ccc(C(=O)Nc2ccc(CN3CCOCC3)cc2)cc1 (stereo not drawn) | – | inconclusive: 16.4 µM [inhibitor, partial curve]
CCSc1nnc(NC(=O)COc2cccc3ccccc23)s1 | – | inconclusive: 16.4 µM [activator, single point]
CCOc1cc(C(=O)Nc2cccc(OCC(=O)N3CCOCC3)c2)cc(OCC)c1OCC | – | active: 2.06 µM
O=C(Nc1nccs1)C1CC(=O)N(c2ccccc2)C1 (stereo not drawn) | – | inconclusive: 23.1 µM [activator, single point]
CN(C)S(=O)(=O)c1ccc(C(=O)Nc2ccccn2)cc1 | – | inconclusive: 18.4 µM [activator, partial curve]
Cc1cc(OC(=O)c2cc(C(F)(F)F)cc(C(F)(F)F)c2)c([N+](=O)[O-])c(=O)[nH]1 | – | inactive
O=C(CCSc1ccccc1)Nc1ccccc1Br | – | inconclusive: 13 µM [activator, partial curve]
CCN1C(=O)CC(N2CCN(c3ccc(C(=O)c4ccncc4)cc3)CC2)C1=O (stereo not drawn) | – | active: 14.6 µM
CN(C(=O)c1cccs1)c1ccc(OCC(=O)Nc2ccc(C(=O)O)cc2)cc1 | – | inactive
O=C(CN1c2cccc3cccc(c23)S1(=O)=O)N1CCN(c2ccccc2)CC1 | – | inactive
COc1ccc(C2C(C(N)=O)=C(C)Nc3nc(-c4ccccc4Cl)nn32)c(OC)c1 (stereo not drawn) | – | inconclusive: 20.6 µM [activator, single point]
CCOc1ccc(-c2c(C(=O)N/N=C/c3cccc(Br)c3)nnn2-c2nonc2N)cc1 | – | inconclusive: 29.1 µM [activator, single point]
CCNC(=S)NNC(=O)CSc1nc2ccccc2n1C | – | inactive
C=CCC[C@H](Cc1ccc(F)cc1)C(=O)OC[C@H](Cc1c[nH]c2ccccc12)NC(=O)[C@@H](CC=C)CC(=O)N(CCO)Cc1ccccc1 | – | active: 23.1 µM
COc1ccc(CCCNC(=O)C2CCC(=O)N(Cc3ccc(Cl)cc3)C2)cc1 (stereo not drawn) | – | inconclusive: 23.1 µM [inhibitor, partial curve]
CSc1nnc(-c2cc3c(s2)-c2ccccc2CC3)o1 | – | inconclusive: 10.3 µM [activator, partial curve]

2 neighbouring records from above:
Structure (SMILES) | activity change, negative = inhibition | Potency
O=C(CN1c2cccc3cccc(c23)S1(=O)=O)N1CCN(c2ccccc2)CC1 | – | inactive
COc1ccc(C2C(C(N)=O)=C(C)Nc3nc(-c4ccccc4Cl)nn32)c(OC)c1 (stereo not drawn) | – | inconclusive: 20.6 µM [activator, single point]

Further structures.

Structure (SMILES) | activity change, negative = inhibition | Potency
CCOC(=O)c1sc(NC(=O)c2ccc(C)s2)cc1C | – | inconclusive: 1.64 µM [activator, partial curve]
CC(=O)Oc1ccc(-c2nc(-c3cccnc3)no2)cc1 | – | inconclusive: 7.31 µM [activator, partial curve]
CCn1c(SCC(=O)Nc2nc(-c3ccc(C)cc3)cs2)nnc1-c1ccccc1 | – | active: 25.9 µM
CCN=C1NN=C(c2c[nH]c3ccccc23)CS1 | – | inconclusive: 3.26 µM [activator, partial curve]
Cc1ccc(C(C)C)c(OCC(=O)Nn2c(C)nc3ccccc3c2=O)c1 | – | inconclusive: 18.4 µM [inhibitor, single point]
CCOc1ccc(Cc2nnc(SCC(=O)Nc3ccccc3)n(N)c2=O)cc1 | – | inactive
COc1ccccc1NC(=O)c1ccc(NC(=O)c2ccc(=O)[nH]c2)cc1 | – | inactive
Cn1nnnc1SCC(=O)Nc1nc2c(F)c(F)c(F)cc2s1 | – | inconclusive: 18.3 µM [activator, partial curve, poor fit]
COCCn1c(=NC(=O)c2ccc(S(=O)(=O)N3CCOCC3)cc2)sc2cc(S(N)(=O)=O)ccc21 | – | inconclusive: 32.6 µM [inhibitor, partial curve, poor fit]
CS(=O)(=O)N(CC(=O)Nc1ccccc1C(=O)NCc1ccco1)c1ccc2c(c1)OCCO2 | – | inconclusive: 32.6 µM [inhibitor, partial curve, poor fit]
COc1cccc(-c2ncc3ccccc3c2COC(=O)N2CCOCC2)c1 | – | inconclusive: 18.3 µM [inhibitor, single point]
O=C(c1ccc2nc(Cc3ccccc3F)oc2c1)N1CCCC1 | – | inconclusive: 14.6 µM [activator, partial curve]
CN(c1ccc(C(=O)Nc2ccccc2C(F)(F)F)cc1)S(C)(=O)=O | – | inconclusive: 18.4 µM [activator, partial curve, poor fit]
Cc1cccc2sc(NC(=O)C3CC3)nc12 | – | inactive
Cc1cccc(NC(=O)c2ccc(C3SCC(=O)N3CCc3ccccc3)cc2)c1C (stereo not drawn) | – | inconclusive: 5.8 µM [inhibitor, single point]
CC(=O)OCc1cc(-c2nn(C)c(=O)c3ccccc23)ccc1C | – | inconclusive: 23.1 µM [activator, single point]
COc1cc(C(Nc2ccccn2)c2ccc3ccc(C)nc3c2O)cc(OC)c1O (stereo not drawn) | – | inconclusive: 1.84 µM [inhibitor, partial curve, poor fit]
Cc1noc(C)c1S(=O)(=O)N1CCCC(C(=O)Nc2ccc(Cl)cn2)C1 (stereo not drawn) | – | active: 16.4 µM
CCOc1ccc(Cc2nnc(N)s2)cc1OCC | – | inconclusive: 16.4 µM [activator, partial curve, poor fit]
COc1cccc(/C=N/n2cnc3ccccc32)c1OC | – | inconclusive: 5.17 µM [activator, partial curve]
O=C(CC1Nc2cccc3cccc(c23)NC1=O)Nc1ccccc1 (stereo not drawn) | – | inconclusive: 32.6 µM [inhibitor, single point]

From PubChem BioAssay AID504467 (National Center for Advancing Translational Sciences (NCATS), 2011)
